Results taken from PubChem BioAssay AID330 (DTP/NCI, 2004).
The list does not hold the whole screen: it is rich in T/C values a quarter to a half above the control, in often repeated tests (any T/C) and in doses without a T/C. Other doses and runs of a compound stand elsewhere. T/C gives the treated animals as a percentage of the vehicle group. Some entries give survivors of the animals treated and no T/C: the source holds a T/C of zero for them, seemingly a mark for toxic or unscored doses. Some doses without a T/C left all or most animals alive at the check, yet need not have been tolerated: survival well below the control is almost never listed, so the zero probably covers shortened survival too. Counts of survivors are from the toxicity check (mostly the fifth day) where no day follows; animals may have died later. Schedules are NCI's codes, read here as Q, the interval in days (D) or hours (H), X, the number of doses. Some entries hold several experiments; the values are given in rising order. For survival time, the PubChem record calls one and a half times the control and up active, and a quarter to a half above the control has no call in these data; cut-offs in other NCI protocols can differ.

Test system: P388 leukemia ip, CD2F1 mice, survival T/C
Test: NCI In Vivo Anticancer Drug Screen. Data for tumor model P388 Leukemia (intraperitoneal) in CD2F1 (CDF1) mice
Details: T/C endpoint: median survival time, higher T/C = longer survival
[1] = dose: 200.0 mg/kg/injection, schedule: Q01DX009 (ip), vehicle: Klucel (hydroxypropylcellulose) (HPC)

## O=[n+]1c2ccccc2n([O-])c2ccccc21.[Cl][Cu][Cl]
dose: 100.0 mg/kg/injection, schedule: Q04DX003 (ip), vehicle: saline with Tween-80
  survivor count: 0 of 6
dose: 200.0 mg/kg/injection, schedule: Q04DX003 (ip), vehicle: saline with Tween-80
  survivor count: 0 of 6
dose: 400.0 mg/kg/injection, schedule: Q04DX003 (ip), vehicle: saline with Tween-80
  survivor count: 0 of 6

## CCCCC1C2C(S(=O)(=O)c3ccccc3)=NOC2C=CN1C(C)=O (stereo unspecified)
dose: 60.0 mg/kg/injection, schedule: Q01DX005 (ip), vehicle: saline with Tween-80
  T/C: 86, 99, 109, 110 % of control
dose: 120.0 mg/kg/injection, schedule: Q01DX005 (ip), vehicle: saline with Tween-80
  survivor count: 4 of 6
dose: 240.0 mg/kg/injection, schedule: Q01DX005 (ip), vehicle: saline with Tween-80
  survivor count: 0 of 6

## O=C1CCNC(=O)N1OS(=O)(=O)c1ccccc1
dose: 100.0 mg/kg/injection, schedule: Q01DX009 (ip), vehicle: Klucel (hydroxypropylcellulose) (HPC)
  survivor count: 5 of 6
[1]
  survivor count: 4 of 6

## CC(C)N(Cc1ccccc1)S(=O)(=O)c1n[nH]c(C(C)(C)C)n1
dose: 200.0 mg/kg/injection, schedule: Q01DX005 (ip), vehicle: saline with Tween-80
  survivor count: 4 of 6

## N#Cc1c(N)nc2c(c1N)CC(CO)O2 (stereo unspecified)
dose: 200.0 mg/kg/injection, schedule: Q01DX009 (ip), vehicle: saline with Tween-80
  survivor count: 6 of 6

## N#Cc1c(-c2ccc(F)cc2)c(-c2ccc(F)cc2)nn(CCO)c1=O
dose: 50.0 mg/kg/injection, schedule: Q04DX002 (ip), vehicle: distilled water + Tween-80
  T/C: 142 % of control
dose: 100.0 mg/kg/injection, schedule: Q01DX005 (ip), vehicle: distilled water + Tween-80
  T/C: 126 % of control
dose: 200.0 mg/kg/injection, schedule: Q04DX002 (ip), vehicle: distilled water + Tween-80
  survivor count: 5 of 6 and 6 of 6
dose: 800.0 mg/kg/injection, schedule: Q01DX005 (ip), vehicle: distilled water + Tween-80
  survivor count: 3 of 6

## Brc1nn[nH]n1
[1]
  survivor count: 2 of 6

## COC(=O)/C=C/c1cc(=O)n2c(nc3ccccc32)s1
dose: 60.0 mg/kg/injection, schedule: Q01DX005 (ip), vehicle: Klucel (hydroxypropylcellulose) (HPC)
  survivor count: 6 of 6
dose: 120.0 mg/kg/injection, schedule: Q01DX005 (ip), vehicle: Klucel (hydroxypropylcellulose) (HPC)
  survivor count: 5 of 6 and 6 of 6
dose: 240.0 mg/kg/injection, schedule: Q01DX005 (ip), vehicle: Klucel (hydroxypropylcellulose) (HPC)
  survivor count: 5 of 6 and 6 of 6

## O=C1CSC(c2cccs2)N1CCN1C(=O)CSC1c1cccs1 (stereo unspecified)
dose: 400.0 mg/kg/injection, schedule: Q04DX002 (ip), vehicle: saline with Tween-80
  survivor count: 6 of 6

## CCCCCCCCCCCCCCCC[N+]1(CC)CCCCCC1
dose: 0.04 mg/kg/injection, schedule: Q01DX009 (ip), vehicle: saline
  survivor count: 6 of 6
dose: 0.19 mg/kg/injection, schedule: Q01DX009 (ip), vehicle: saline
  survivor count: 0 of 6
dose: 0.39 mg/kg/injection, schedule: Q01DX009 (ip), vehicle: saline
  survivor count: 6 of 6
dose: 0.78 mg/kg/injection, schedule: Q01DX009 (ip), vehicle: saline
  survivor count: 2 of 6
dose: 1.56 mg/kg/injection, schedule: Q01DX009 (ip), vehicle: saline
  survivor count: 3 of 6
dose: 3.12 mg/kg/injection, schedule: Q01DX009 (ip), vehicle: saline
  survivor count: 0 of 6
dose: 6.25 mg/kg/injection, schedule: Q01DX009 (ip), vehicle: saline
  survivor count: 0 of 6
dose: 12.5 mg/kg/injection, schedule: Q01DX009 (ip), vehicle: saline
  survivor count: 0 of 6
dose: 50.0 mg/kg/injection, schedule: Q01DX009 (ip), vehicle: saline
  survivor count: 1 of 6
dose: 100.0 mg/kg/injection, schedule: Q01DX009 (ip), vehicle: saline
  survivor count: 0 of 6
dose: 200.0 mg/kg/injection, schedule: Q01DX009 (ip), vehicle: saline
  survivor count: 0 of 6

## COc1cc(NCCN)c2ncsc2c1
dose: 200.0 mg/kg/injection, schedule: Q01DX005 (ip), vehicle: saline
  survivor count: 0 of 6
